Laboratory results taken from the supplement of paper PMC12823440, “Inhibitors supercharge kinase turnover through native proteolytic circuits” (Nature, 2025).
This is one part of the list. The calls rarely recur for the same compound in another form.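 Kinases were expressed as nanoluciferase fusions in K562 cells and luminescence was read every 4 h between 2 and 18 h as percent of control, DMSO set to 100% and a positive control to 0%. A time point counts as decreased when the signal drops significantly (2 sigma). The hit call is the authors' own, does not follow from the count of time points alone, and its rule is not shown.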

The chains behind the UniProt entries cited, without tags or fusion partners. Where a name states a change or a piece, a line headed by the entry shows the natural chain unless it says otherwise.
UniProt P07333, whole entry: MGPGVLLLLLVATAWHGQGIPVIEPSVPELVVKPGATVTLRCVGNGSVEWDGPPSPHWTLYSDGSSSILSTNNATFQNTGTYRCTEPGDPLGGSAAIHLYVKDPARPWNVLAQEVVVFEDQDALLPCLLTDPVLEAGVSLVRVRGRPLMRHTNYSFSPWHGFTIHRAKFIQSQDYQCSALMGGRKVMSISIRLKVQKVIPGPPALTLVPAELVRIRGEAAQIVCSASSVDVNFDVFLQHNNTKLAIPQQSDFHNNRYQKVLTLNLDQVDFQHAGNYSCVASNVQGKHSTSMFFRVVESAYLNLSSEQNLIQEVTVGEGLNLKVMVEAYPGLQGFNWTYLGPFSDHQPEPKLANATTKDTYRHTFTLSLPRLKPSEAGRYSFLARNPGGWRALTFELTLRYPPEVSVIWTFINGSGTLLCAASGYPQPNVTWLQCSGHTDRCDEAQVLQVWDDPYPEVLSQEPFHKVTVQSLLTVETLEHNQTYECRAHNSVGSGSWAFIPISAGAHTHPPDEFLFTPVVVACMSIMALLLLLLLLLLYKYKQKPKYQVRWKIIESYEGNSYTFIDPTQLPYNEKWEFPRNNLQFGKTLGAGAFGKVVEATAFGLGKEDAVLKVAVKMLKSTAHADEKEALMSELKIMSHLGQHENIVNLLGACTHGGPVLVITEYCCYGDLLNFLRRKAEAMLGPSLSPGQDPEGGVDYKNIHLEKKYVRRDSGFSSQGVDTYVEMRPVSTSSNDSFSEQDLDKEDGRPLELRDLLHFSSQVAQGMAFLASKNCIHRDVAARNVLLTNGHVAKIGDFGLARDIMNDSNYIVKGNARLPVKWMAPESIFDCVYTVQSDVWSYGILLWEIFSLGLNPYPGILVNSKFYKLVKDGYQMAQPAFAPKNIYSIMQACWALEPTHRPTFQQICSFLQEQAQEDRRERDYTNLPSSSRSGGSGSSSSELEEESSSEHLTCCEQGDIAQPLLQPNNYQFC
UniProt Q00526: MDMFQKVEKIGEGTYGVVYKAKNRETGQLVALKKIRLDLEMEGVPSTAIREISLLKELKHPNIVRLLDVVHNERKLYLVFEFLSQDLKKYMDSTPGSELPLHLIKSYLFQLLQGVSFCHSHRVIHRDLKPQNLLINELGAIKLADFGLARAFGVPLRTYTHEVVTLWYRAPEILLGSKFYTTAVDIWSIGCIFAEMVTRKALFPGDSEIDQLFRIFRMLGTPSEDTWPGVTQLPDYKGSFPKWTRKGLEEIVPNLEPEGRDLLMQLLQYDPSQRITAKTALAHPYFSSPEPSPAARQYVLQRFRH
UniProt P07947, whole entry, looked up: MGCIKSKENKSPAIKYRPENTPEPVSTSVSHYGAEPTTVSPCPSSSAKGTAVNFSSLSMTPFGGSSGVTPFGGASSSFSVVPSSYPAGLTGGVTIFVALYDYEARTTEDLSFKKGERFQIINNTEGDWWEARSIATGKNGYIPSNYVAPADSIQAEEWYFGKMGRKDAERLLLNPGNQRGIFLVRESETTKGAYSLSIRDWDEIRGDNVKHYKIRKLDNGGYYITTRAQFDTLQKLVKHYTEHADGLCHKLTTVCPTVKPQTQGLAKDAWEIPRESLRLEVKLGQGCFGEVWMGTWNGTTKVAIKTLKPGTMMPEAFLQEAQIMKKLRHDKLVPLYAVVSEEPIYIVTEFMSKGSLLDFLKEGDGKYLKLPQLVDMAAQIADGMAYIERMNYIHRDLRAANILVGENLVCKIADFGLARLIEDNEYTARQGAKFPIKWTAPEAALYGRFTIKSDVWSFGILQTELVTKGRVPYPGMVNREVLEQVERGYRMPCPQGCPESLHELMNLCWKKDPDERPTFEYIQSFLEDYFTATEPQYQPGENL
UniProt Q13546: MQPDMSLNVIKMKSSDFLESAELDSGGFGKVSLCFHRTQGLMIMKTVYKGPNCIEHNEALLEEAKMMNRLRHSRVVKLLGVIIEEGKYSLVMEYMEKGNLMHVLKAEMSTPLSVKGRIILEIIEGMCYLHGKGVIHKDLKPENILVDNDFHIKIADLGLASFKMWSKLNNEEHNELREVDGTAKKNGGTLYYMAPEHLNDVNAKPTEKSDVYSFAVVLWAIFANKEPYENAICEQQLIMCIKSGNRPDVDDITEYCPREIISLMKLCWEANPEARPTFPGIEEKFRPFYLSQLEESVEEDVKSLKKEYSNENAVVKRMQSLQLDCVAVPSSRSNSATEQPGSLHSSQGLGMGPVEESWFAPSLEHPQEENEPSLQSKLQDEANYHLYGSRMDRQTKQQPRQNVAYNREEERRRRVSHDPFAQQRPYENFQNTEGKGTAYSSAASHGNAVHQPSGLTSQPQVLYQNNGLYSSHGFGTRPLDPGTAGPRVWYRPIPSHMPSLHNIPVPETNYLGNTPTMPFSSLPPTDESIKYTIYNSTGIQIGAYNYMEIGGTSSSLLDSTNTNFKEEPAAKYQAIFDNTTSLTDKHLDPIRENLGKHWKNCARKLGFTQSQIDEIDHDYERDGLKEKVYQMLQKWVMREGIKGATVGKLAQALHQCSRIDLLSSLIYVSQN
UniProt P00519, whole entry: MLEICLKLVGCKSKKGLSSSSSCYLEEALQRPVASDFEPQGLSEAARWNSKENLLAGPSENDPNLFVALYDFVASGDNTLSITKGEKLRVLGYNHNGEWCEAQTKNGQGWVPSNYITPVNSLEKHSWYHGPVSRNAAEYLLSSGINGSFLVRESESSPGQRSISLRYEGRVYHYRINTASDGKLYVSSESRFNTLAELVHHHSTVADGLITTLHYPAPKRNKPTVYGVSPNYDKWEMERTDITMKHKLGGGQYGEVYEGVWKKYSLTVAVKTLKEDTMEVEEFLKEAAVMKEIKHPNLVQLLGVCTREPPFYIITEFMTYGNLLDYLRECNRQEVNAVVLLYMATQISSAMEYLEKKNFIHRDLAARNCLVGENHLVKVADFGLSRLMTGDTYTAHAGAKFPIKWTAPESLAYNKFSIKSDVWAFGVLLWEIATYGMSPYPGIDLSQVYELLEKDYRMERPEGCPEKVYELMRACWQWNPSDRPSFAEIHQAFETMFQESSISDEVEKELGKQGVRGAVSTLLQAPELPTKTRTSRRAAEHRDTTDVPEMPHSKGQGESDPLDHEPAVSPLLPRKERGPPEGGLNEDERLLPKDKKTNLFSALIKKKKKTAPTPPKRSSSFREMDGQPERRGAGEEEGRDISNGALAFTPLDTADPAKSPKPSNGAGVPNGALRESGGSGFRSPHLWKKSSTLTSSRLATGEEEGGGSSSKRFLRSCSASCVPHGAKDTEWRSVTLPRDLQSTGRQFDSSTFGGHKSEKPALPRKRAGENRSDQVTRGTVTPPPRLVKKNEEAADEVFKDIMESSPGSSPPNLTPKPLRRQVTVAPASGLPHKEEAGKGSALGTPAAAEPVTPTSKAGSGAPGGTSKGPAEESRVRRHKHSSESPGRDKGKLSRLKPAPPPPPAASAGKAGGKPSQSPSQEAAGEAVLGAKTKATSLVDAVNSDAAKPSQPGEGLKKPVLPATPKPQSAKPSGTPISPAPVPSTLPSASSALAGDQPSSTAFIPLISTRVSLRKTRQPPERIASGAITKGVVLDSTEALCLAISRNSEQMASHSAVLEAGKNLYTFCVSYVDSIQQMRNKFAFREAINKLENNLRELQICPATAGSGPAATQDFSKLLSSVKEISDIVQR
UniProt Q9Y463, whole entry, looked up: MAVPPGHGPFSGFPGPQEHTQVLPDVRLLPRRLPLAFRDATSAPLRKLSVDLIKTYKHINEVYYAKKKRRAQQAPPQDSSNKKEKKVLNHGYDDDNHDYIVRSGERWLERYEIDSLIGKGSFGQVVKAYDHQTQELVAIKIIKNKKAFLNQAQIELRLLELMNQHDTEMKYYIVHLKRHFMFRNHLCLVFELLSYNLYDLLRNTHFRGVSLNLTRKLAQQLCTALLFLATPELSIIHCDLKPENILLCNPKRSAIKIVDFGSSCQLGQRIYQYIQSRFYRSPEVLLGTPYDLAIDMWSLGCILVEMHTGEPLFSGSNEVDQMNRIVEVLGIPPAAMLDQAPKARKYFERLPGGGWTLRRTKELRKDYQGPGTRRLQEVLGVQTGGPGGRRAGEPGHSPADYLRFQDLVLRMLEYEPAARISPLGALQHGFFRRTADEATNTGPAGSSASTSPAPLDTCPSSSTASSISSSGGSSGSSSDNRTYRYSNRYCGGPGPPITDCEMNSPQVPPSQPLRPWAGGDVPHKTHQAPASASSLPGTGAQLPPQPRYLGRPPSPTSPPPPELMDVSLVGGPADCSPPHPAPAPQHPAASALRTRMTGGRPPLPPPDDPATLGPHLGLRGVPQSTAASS
UniProt P29317, whole entry: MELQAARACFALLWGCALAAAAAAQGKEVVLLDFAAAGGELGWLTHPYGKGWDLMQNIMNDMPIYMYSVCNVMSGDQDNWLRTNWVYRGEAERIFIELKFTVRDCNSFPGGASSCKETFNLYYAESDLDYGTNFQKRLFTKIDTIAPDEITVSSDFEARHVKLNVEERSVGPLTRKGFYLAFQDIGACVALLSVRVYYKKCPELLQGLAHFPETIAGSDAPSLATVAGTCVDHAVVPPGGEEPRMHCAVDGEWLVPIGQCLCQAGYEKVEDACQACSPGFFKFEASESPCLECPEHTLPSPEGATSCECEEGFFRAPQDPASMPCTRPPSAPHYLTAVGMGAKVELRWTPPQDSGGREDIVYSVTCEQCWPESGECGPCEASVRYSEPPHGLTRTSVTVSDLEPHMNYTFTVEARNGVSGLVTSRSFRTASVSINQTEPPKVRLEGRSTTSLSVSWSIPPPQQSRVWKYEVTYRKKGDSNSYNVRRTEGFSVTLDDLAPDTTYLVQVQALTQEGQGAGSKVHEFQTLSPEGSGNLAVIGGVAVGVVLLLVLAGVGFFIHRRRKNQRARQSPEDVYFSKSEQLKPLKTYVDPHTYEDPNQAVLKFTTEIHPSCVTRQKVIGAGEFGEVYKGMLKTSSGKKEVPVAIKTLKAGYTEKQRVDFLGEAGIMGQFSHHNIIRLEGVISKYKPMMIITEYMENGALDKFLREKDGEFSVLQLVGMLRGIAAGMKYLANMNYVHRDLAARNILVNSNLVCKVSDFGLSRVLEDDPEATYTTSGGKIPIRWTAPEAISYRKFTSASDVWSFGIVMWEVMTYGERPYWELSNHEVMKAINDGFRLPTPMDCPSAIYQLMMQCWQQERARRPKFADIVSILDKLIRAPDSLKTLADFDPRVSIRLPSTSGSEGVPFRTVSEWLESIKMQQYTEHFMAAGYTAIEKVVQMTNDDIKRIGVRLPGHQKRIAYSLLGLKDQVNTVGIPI
UniProt P49840: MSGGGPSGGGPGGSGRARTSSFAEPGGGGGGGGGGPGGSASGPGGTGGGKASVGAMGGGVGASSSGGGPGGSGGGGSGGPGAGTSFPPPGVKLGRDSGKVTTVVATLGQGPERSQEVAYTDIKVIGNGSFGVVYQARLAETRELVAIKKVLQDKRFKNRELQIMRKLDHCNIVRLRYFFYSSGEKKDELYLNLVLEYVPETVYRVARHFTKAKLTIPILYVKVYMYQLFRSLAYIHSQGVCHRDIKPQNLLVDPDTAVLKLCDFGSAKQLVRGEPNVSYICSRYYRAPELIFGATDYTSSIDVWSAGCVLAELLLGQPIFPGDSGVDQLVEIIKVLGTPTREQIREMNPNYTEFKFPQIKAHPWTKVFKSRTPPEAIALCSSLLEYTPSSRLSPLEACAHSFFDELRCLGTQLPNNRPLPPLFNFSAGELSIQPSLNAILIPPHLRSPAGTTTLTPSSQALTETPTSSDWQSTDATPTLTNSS
UniProt P10398: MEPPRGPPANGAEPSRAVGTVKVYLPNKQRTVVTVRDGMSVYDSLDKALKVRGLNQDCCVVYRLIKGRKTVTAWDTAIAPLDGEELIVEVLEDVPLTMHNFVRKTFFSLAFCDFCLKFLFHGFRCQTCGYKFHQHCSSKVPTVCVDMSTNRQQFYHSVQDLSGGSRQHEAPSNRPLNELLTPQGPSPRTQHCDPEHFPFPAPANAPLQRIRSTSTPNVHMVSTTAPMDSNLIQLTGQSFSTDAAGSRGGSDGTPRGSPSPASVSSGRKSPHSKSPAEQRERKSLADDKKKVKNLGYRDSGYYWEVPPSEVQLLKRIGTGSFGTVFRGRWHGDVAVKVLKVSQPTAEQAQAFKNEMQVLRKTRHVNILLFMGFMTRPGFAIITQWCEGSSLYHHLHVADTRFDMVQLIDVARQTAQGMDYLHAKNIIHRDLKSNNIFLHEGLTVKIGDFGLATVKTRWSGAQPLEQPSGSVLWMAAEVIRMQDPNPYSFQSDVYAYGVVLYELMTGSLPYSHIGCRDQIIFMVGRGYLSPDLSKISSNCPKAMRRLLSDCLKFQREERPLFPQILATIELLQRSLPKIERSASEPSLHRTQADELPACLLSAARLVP

Columns and labels:
Test in all cases: number of time points (of 5) at which kinase-Nluc abundance scored as decreased, DMSO-normalised (count); higher = more persistent destabilization
[1] = compound: C#Cc1cccc(Nc2ncnc3cc(OCCOC)c(OCCO)cc23)c1 [Desmethyl Erlotinib (hydrochloride)]; conditions: 10 µM; K562; 2-18 h
Desmethyl Erlotinib = compound: C#Cc1cccc(Nc2ncnc3cc(OCCOC)c(OCCO)cc23)c1 [Desmethyl Erlotinib]; conditions: 10 µM; K562; 2-18 h
[2] = compound: C#Cc1cccc(Nc2ncnc3cc(OCCOC)c(OCCOC)cc23)c1 [Erlotinib (Hydrochloride)]; conditions: 10 µM; K562; 2-18 h
Erlotinib = compound: C#Cc1cccc(Nc2ncnc3cc(OCCOC)c(OCCOC)cc23)c1 [Erlotinib]; conditions: 10 µM; K562; 2-18 h
Icotinib (Hydrochloride) = compound: C#Cc1cccc(Nc2ncnc3cc4c(cc23)OCCOCCOCCO4)c1 [Icotinib (Hydrochloride)]; conditions: 10 µM; K562; 2-18 h
Icotinib = compound: C#Cc1cccc(Nc2ncnc3cc4c(cc23)OCCOCCOCCO4)c1 [Icotinib]; conditions: 10 µM; K562; 2-18 h
(Z)-Guggulsterone = compound: C/C=C1\C(=O)C[C@H]2[C@@H]3CCC4=CC(=O)CC[C@]4(C)[C@H]3CC[C@]12C [(Z)-Guggulsterone]; conditions: 10 µM; K562; 2-18 h
Guggulsterone = compound: C/C=C1\C(=O)C[C@H]2[C@@H]3CCC4=CC(=O)CC[C@]4(C)[C@H]3CC[C@]12C [Guggulsterone]; conditions: 10 µM; K562; 2-18 h
[3] = compound: C=CC(=O)N1CCN(c2ncnc3c(F)c(-c4c(O)cccc4F)c(Cl)cc23)CC1; conditions: K562, 2-18 h
Mobocertinib (succinate) = compound: C=CC(=O)Nc1cc(Nc2ncc(C(=O)OC(C)C)c(-c3cn(C)c4ccccc34)n2)c(OC)cc1N(C)CCN(C)C [Mobocertinib (succinate)]; conditions: 10 µM; K562; 2-18 h
Mobocertinib = compound: C=CC(=O)Nc1cc(Nc2ncc(C(=O)OC(C)C)c(-c3cn(C)c4ccccc34)n2)c(OC)cc1N(C)CCN(C)C [Mobocertinib]; conditions: 10 µM; K562; 2-18 h
Osimertinib (dimesylate) = compound: C=CC(=O)Nc1cc(Nc2nccc(-c3cn(C)c4ccccc34)n2)c(OC)cc1N(C)CCN(C)C [Osimertinib (dimesylate)]; conditions: 2.5 µM; K562; 2-18 h
Osimertinib mesylate = compound: C=CC(=O)Nc1cc(Nc2nccc(-c3cn(C)c4ccccc34)n2)c(OC)cc1N(C)CCN(C)C [Osimertinib mesylate]; conditions: 2.5 µM; K562; 2-18 h
Osimertinib = compound: C=CC(=O)Nc1cc(Nc2nccc(-c3cn(C)c4ccccc34)n2)c(OC)cc1N(C)CCN(C)C [Osimertinib]; conditions: 2.5 µM; K562; 2-18 h
[4] = compound: C=CC(=O)Nc1cc(Nc2nccc(-c3cn(C4CC4)c4ccccc34)n2)c(OC)cc1N(C)CCN(C)C [Almonertinib (hydrochloride)]; conditions: 2.5 µM; K562; 2-18 h
Almonertinib = compound: C=CC(=O)Nc1cc(Nc2nccc(-c3cn(C4CC4)c4ccccc34)n2)c(OC)cc1N(C)CCN(C)C [Almonertinib]; conditions: 2.5 µM; K562; 2-18 h
AV-412 (free base) = compound: C=CC(=O)Nc1cc2c(Nc3ccc(F)c(Cl)c3)ncnc2cc1C#CC(C)(C)N1CCN(C)CC1 [AV-412 (free base)]; conditions: 2.5 µM; K562; 2-18 h
[5] = compound: C=CC(=O)Nc1cc2c(Nc3ccc(F)c(Cl)c3)ncnc2cc1C#CC(C)(C)N1CCN(C)CC1; conditions: 2.5 µM; K562; 2-18 h
[6] = compound: CC(=O)N[C@H](Cc1ccc(O)cc1)C(=O)N[C@H](CCCN=C(N)N)C(=O)N[C@H](Cc1ccccc1)C(N)=O; conditions: 10 µM; K562; 2-18 h
[7] = compound: CC(=O)Nc1cccc(-n2c(=O)n(C3CC3)c(=O)c3c(Nc4ccc(I)cc4F)n(C)c(=O)c(C)c32)c1 [Trametinib (DMSO solvate)]; conditions: 10 µM; K562; 2-18 h

Measured: number of time points

CSF1R (UniProt P07333)
0: [1] | Desmethyl Erlotinib | [2] | Erlotinib | Icotinib (Hydrochloride) | Icotinib | (Z)-Guggulsterone | Guggulsterone | [3]; 2.5 µM | [3]; 10 µM | Mobocertinib (succinate) | Mobocertinib | Osimertinib (dimesylate) | Osimertinib mesylate | Osimertinib | [4] | Almonertinib | AV-412 (free base) | [5] | [6] | [7]

CDK3 (UniProt Q00526)
0: [1] | Desmethyl Erlotinib | [2] | Erlotinib | Icotinib (Hydrochloride) | Icotinib | (Z)-Guggulsterone | Guggulsterone | [3]; 2.5 µM | [3]; 10 µM | Mobocertinib (succinate) | Mobocertinib | Osimertinib (dimesylate) | Osimertinib mesylate | Osimertinib | [4] | Almonertinib | AV-412 (free base) | [5] | [6] | [7]

BRAF_V600E
2: Osimertinib
1: Icotinib | Osimertinib (dimesylate) | Osimertinib mesylate | [5] | [7]
0: [1] | Desmethyl Erlotinib | [2] | Erlotinib | Icotinib (Hydrochloride) | (Z)-Guggulsterone | Guggulsterone | [3]; 2.5 µM | [3]; 10 µM | Mobocertinib (succinate) | Mobocertinib | [4] | Almonertinib | [6]
4: AV-412 (free base)

YES1 (UniProt P07947)
3: Icotinib
0: [1] | Desmethyl Erlotinib | [2] | Erlotinib | Icotinib (Hydrochloride) | (Z)-Guggulsterone | Guggulsterone | [3]; 2.5 µM | [3]; 10 µM | Mobocertinib (succinate) | Mobocertinib | Osimertinib (dimesylate) | Osimertinib mesylate | Osimertinib | [4] | Almonertinib | AV-412 (free base) | [5] | [6] | [7]

FGFR2 (UniProt P21802)
3: [2]
0: [1] | Desmethyl Erlotinib | Erlotinib | Icotinib (Hydrochloride) | (Z)-Guggulsterone | Guggulsterone | [3]; 2.5 µM | [3]; 10 µM | Mobocertinib (succinate) | Mobocertinib | Osimertinib (dimesylate) | Osimertinib mesylate | Osimertinib | [4] | Almonertinib | AV-412 (free base) | [5] | [6]
2: [7]
1: Icotinib

CAMK2A (UniProt Q9UQM7)
0: [1] | Desmethyl Erlotinib | [2] | Erlotinib | Icotinib (Hydrochloride) | Icotinib | (Z)-Guggulsterone | Guggulsterone | [3]; 2.5 µM | [3]; 10 µM | Mobocertinib (succinate) | Mobocertinib | Osimertinib (dimesylate) | Osimertinib mesylate | Osimertinib | [4] | Almonertinib | AV-412 (free base) | [5] | [6] | [7]

RIPK1 (UniProt Q13546)
3: Icotinib
0: [1] | Desmethyl Erlotinib | [2] | Erlotinib | Icotinib (Hydrochloride) | (Z)-Guggulsterone | Guggulsterone | [3]; 2.5 µM | [3]; 10 µM | Mobocertinib (succinate) | Mobocertinib | Osimertinib (dimesylate) | Osimertinib mesylate | Osimertinib | [4] | Almonertinib | AV-412 (free base) | [5] | [6] | [7]

RAF1 (UniProt P04049)
0: [1] | Desmethyl Erlotinib | [2] | Erlotinib | Icotinib (Hydrochloride) | Icotinib | (Z)-Guggulsterone | Guggulsterone | [3]; 2.5 µM | [3]; 10 µM | Mobocertinib (succinate) | Mobocertinib | Osimertinib (dimesylate) | Osimertinib mesylate | Osimertinib | [4] | Almonertinib | AV-412 (free base) | [5] | [6]
2: [7]

ABL1 (UniProt P00519)
2: Osimertinib (dimesylate) | Osimertinib mesylate | Osimertinib
1: (Z)-Guggulsterone
4: Erlotinib
0: [1] | Desmethyl Erlotinib | [2] | Icotinib (Hydrochloride) | Icotinib | Guggulsterone | [3]; 2.5 µM | [3]; 10 µM | Mobocertinib (succinate) | Mobocertinib | [4] | Almonertinib | AV-412 (free base) | [5] | [6] | [7]

JAK1 (UniProt P23458)
1: Icotinib
0: [1] | Desmethyl Erlotinib | [2] | Erlotinib | Icotinib (Hydrochloride) | (Z)-Guggulsterone | Guggulsterone | [3]; 2.5 µM | [3]; 10 µM | Mobocertinib (succinate) | Mobocertinib | Osimertinib (dimesylate) | Osimertinib mesylate | Osimertinib | [4] | Almonertinib | AV-412 (free base) | [5] | [6] | [7]

PIK4CA (UniProt P42356)
1: [5]
0: [1] | Desmethyl Erlotinib | [2] | Erlotinib | Icotinib (Hydrochloride) | Icotinib | (Z)-Guggulsterone | Guggulsterone | [3]; 2.5 µM | [3]; 10 µM | Mobocertinib (succinate) | Mobocertinib | Osimertinib (dimesylate) | Osimertinib mesylate | Osimertinib | [4] | Almonertinib | AV-412 (free base) | [6] | [7]

DYRK1B (UniProt Q9Y463)
0: [1] | Desmethyl Erlotinib | [2] | Erlotinib | Icotinib (Hydrochloride) | Icotinib | (Z)-Guggulsterone | Guggulsterone | [3]; 2.5 µM | [3]; 10 µM | Mobocertinib (succinate) | Mobocertinib | Osimertinib (dimesylate) | Osimertinib mesylate | Osimertinib | [4] | Almonertinib | AV-412 (free base) | [5] | [6] | [7]

EPHA2 (UniProt P29317)
0: [1] | Desmethyl Erlotinib | [2] | Erlotinib | Icotinib (Hydrochloride) | Icotinib | (Z)-Guggulsterone | Guggulsterone | [3]; 2.5 µM | [3]; 10 µM | Mobocertinib (succinate) | Mobocertinib | Osimertinib (dimesylate) | Osimertinib mesylate | Osimertinib | [4] | Almonertinib | AV-412 (free base) | [5] | [6] | [7]

GSK3A (UniProt P49840)
0: [1] | Desmethyl Erlotinib | [2] | Erlotinib | Icotinib (Hydrochloride) | Icotinib | (Z)-Guggulsterone | Guggulsterone | [3]; 2.5 µM | [3]; 10 µM | Mobocertinib (succinate) | Mobocertinib | Osimertinib (dimesylate) | Osimertinib mesylate | Osimertinib | [4] | Almonertinib | AV-412 (free base) | [5] | [6] | [7]

Two consecutive records out of the list so far, for reference:
CSF1R (UniProt P07333)
0: [1] | Desmethyl Erlotinib | [2] | Erlotinib | Icotinib (Hydrochloride) | Icotinib | (Z)-Guggulsterone | Guggulsterone | [3]; 2.5 µM | [3]; 10 µM | Mobocertinib (succinate) | Mobocertinib | Osimertinib (dimesylate) | Osimertinib mesylate | Osimertinib | [4] | Almonertinib | AV-412 (free base) | [5] | [6] | [7]

CDK3 (UniProt Q00526)
0: [1] | Desmethyl Erlotinib | [2] | Erlotinib | Icotinib (Hydrochloride) | Icotinib | (Z)-Guggulsterone | Guggulsterone | [3]; 2.5 µM | [3]; 10 µM | Mobocertinib (succinate) | Mobocertinib | Osimertinib (dimesylate) | Osimertinib mesylate | Osimertinib | [4] | Almonertinib | AV-412 (free base) | [5] | [6] | [7]

The list goes on:

ARAF (UniProt P10398)
0: [1] | Desmethyl Erlotinib | [2] | Erlotinib | Icotinib (Hydrochloride) | Icotinib | (Z)-Guggulsterone | Guggulsterone | [3]; 2.5 µM | [3]; 10 µM | Mobocertinib (succinate) | Mobocertinib | Osimertinib (dimesylate) | Osimertinib mesylate | Osimertinib | [4] | Almonertinib | AV-412 (free base) | [5] | [6] | [7]
